Results: patent US20020177231A1
Results are given in words; binding and its absence hold for the method and conditions named. Binding seen in cells or lysates may run through a third protein. Some binding calls cover weakened binding; strength is not graded here. Sequences can lack the tags named with a protein.

By UniProt entry, the sequences of proteins in these tests, tags left out.
UniProt Q14289: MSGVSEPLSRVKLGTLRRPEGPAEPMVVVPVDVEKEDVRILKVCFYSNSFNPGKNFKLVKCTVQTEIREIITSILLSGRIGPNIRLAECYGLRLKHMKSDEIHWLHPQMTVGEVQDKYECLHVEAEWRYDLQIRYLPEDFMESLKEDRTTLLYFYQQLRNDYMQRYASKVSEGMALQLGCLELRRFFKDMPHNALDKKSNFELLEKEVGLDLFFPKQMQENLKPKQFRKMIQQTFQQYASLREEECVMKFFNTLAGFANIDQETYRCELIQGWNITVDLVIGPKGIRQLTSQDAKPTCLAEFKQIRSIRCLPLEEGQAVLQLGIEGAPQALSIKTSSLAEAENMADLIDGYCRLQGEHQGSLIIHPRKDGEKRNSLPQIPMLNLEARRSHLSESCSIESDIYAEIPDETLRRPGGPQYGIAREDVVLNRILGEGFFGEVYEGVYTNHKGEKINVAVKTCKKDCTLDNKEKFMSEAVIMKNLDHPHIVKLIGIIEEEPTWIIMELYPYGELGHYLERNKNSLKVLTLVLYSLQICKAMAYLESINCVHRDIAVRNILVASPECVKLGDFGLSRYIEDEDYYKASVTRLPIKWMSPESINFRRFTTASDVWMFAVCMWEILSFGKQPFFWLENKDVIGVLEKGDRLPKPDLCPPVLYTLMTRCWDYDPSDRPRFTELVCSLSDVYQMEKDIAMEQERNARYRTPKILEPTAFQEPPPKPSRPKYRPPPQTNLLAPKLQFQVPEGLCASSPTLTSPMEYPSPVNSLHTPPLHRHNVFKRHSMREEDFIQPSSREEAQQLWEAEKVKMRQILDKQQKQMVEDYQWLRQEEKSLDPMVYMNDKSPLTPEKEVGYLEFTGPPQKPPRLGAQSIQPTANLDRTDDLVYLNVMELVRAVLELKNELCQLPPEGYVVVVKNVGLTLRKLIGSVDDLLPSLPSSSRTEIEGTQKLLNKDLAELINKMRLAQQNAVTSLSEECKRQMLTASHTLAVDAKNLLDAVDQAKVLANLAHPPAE

Target: PYK2 (UniProt Q14289)
Experiment: co-immunoprecipitation from JY8 lysate (anti-PYK2; reciprocal with anti-GFP), Western blot

B1: EGFP-leupaxin chimeric protein (protein, not shown: large carriers)
chain: MEELDALLEELERSTLQDSDEYSNPAPLPLDQHSRKETNLDETSEILSIQDNTSPLPAQLVYTTNIQELNVYSEAQEPKESPPPSKTSAAAQLDELMAHLTEMQAKVAVRADAGKKHLPDKQDHKASLDSMLGGLEQELQDLGIATVPKGHCASCQKPIAGKVIHALGQSWHPEHFVCTHCKEEIGSSPFFERSGLAYCPNDYHQLFSPRCAYCAAPILDKVLTAMNQTWHPEHFFCSHCGEVFGAEGFHEKDKKPYCRKDFLAMFSPKCGGCNRPVLENYLSAMDTVWHPECFVCGDCFTSFSTGSFFELDGRPFCELHYHHRRGTLCHGCGQPITGRCISAMGYKFHPEHFVCAFCLTQLSKGIFREQNDKTYCQPCFNKLFPL
modifications: phosphotyrosine (sites not given)
B1 was tested, and the binding was “binds”.
